This assay concerns the target VEGF. In words: VEGF binding assay (FIG. 1).

These are yes or no findings as the source states them, for the method shown. A result given as binding can be weak or reduced; the word gives no strength.

Here are results for two molecules from patent publication US20260055173A1.

B1: Strain #6 VHH (Fc fusion, not shown: a dimerising Fc or GST)
chain: QVQLQESGGGLVQPGGSLRLSCAASGFTFSTSTMSWYRQAPGKERELVAFITSAGATTNYADSVKDRFTMSRDNDKNTVYLQMNVLKPEDTAMYYCRALVTLWNVYWGQGTQVTVSS
Turning to B1, the binding entry is “binds”.

B2: Strain #48 VHH (VHH, not shown: a dimerising Fc or GST)
VHH: EVQLLESGGGLVQPGGSLRLSCAASGFTFSTSTMSWYRQAPGKERELVSFITSAGATTYYADSVKGRFTMSRDNSKNTVYLQMNSLRAEDTAVYYCRALVTLWNVYWGQGTLVTVSS
For the molecule B2, the binding result was “binds”.
